Publication PMC9273615, “Regulation of AUXIN RESPONSE FACTOR condensation and nucleo-cytoplasmic partitioning” (Nature Communications, 2022)
These are yes or no findings as the source states them, for the method shown. Binding seen in cells or lysates may run through a third protein. Some entries that bind do so weakly or less than the wild type. Where a sequence is shown, tags or fusion partners need not be part of it.

Target: T1, ARF19 as BiFC fusions (nEYFP-ARF19 and cEYFP-ARF19) (Arabidopsis thaliana), Q8RYC8
T1 chain: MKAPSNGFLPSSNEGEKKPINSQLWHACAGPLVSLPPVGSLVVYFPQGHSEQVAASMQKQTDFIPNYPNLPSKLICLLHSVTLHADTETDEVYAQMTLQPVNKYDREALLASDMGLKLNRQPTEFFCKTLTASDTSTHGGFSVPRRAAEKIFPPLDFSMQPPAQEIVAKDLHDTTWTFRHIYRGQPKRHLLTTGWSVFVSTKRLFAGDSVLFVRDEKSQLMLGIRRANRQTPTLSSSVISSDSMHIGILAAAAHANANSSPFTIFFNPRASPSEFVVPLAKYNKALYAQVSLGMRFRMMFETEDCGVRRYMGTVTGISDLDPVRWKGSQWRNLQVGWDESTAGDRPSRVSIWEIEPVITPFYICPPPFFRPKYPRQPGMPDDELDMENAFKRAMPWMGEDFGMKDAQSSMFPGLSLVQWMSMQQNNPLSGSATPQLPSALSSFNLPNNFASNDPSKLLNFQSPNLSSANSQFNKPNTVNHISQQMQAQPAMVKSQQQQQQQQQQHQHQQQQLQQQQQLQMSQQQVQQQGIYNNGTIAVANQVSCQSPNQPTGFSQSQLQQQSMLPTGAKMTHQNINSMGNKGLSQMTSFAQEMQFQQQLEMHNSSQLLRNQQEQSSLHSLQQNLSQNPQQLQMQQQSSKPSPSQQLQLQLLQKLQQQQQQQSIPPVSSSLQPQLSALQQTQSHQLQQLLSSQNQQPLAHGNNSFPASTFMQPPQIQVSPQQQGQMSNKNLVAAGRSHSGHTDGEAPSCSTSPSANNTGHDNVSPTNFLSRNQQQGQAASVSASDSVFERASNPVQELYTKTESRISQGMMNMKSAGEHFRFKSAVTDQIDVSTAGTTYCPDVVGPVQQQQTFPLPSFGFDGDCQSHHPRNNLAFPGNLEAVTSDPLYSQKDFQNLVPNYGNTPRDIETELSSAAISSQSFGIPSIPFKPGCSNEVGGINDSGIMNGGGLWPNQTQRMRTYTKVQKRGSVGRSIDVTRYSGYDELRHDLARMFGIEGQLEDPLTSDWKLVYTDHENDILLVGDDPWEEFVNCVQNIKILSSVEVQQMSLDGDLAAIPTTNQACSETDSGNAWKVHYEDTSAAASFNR
Assay: split reporter; BiFC with nEYFP and cEYFP fusions co-infiltrated with the p19 strain into 3-week-old Nicotiana benthamiana leaves, 22 °C, 3 d; confocal microscopy; nuclear marker WPP-mCherry
Conditions: remark: other sources report otherwise

B1: ARF19 as BiFC fusions (nEYFP-ARF19 and cEYFP-ARF19), Q8RYC8 1-1086 (protein)
chain: T1 chain
binding: binds
